Experimental data as given in patent publication EP4703382A1.
No constants are given. Whether binding was seen depends on the method and setting.

Tests used:
Experiment in all cases: ELISA, 200 ng/well coated, anti-His HRP
[1] = molecular target: PD1
[2] = molecular target: BCMA
[3] = molecular target: HER2
[4] = molecular target: HpaA
[5] = molecular target: IL-15
[6] = molecular target: HtrA
[7] = molecular target: IL-12
[8] = molecular target: IL-18
[9] = molecular target: UreB

Measured: binding

B1: PDL1-1 (VHH)
VHH: QVQLQESGGGLVQPGGSLTLSCAASGFTVSNSAVSWARQAPGKGLEWVSLIDSNRNTVYAQSVRGRFTISRDNVKNTVYLQMNSLKPEDTAVYYCAKGIWGSTLTGQGTQVTVSS
no binding (tested: 0.2 µg): all assays above

B2: PDL1-3 (VHH)
VHH: QVQLQESGGGLVQPGGSLRLSCAGSGSIFRITPVAWYRQAPEKQRELVAVITDNGSTDYGDFVKGRFTISRDNAKNTVYLQMNSLKPEDTAVYYCNSRARPVRWTWGQGTQVTVSS
no binding (tested: 0.2 µg): all assays above

B3: PDL1-14 (VHH)
VHH: QVQLQESGGGLVQPGGSLRLSCAASGIISDINMVAWYRQAPGKQRELVAKIFRGGSTYYTDFVKGRFTISRENAKNTVYLQMNSLKPDDTAVYYCNARIQIRADRDYSDYWGQGTQVTVSS
no binding (tested: 0.2 µg): all assays above
